Measurements published in article PMC6739421.
Results are given in words; binding and its absence hold for the method and conditions named. Some binding calls cover weakened binding; strength is not graded here.

Target: phage λ terminase small subunit (TerS, gpNu1), wild type (phage λ) (UniProt P03707)
Assay: two-hybrid; bacterial adenylate cyclase two-hybrid (BACTH) in E. coli BTH101 with plasmids pKT25 and pUT18C; colour on X-gal/IPTG plates at 30°C and β-galactosidase in Miller units after overnight induction with 0.5 mM IPTG

B1: phage λ terminase small subunit (TerS, gpNu1), wild type (protein, UniProt P03707 1-181)
chain: MEVNKKQLADIFGASIRTIQNWQEQGMPVLRGGGKGNEVLYDSAAVIKWYAERDAEIENEKLRREVEELRQASEADLQPGTIEYERHRLTRAQADAQELKNARDSAEVVETAFCTFVLSRIAGEIASILDGLPLSVQRRFPELENRHVDFLKRDIIKAMNKAAALDELIPGLLSEYIEQSG
In the case of B1, the binding is reported as “binds”.
